According to US20220211037A1, “BIOSENSORS FOR DROUGHT STRESS IN PLANTS” (The Regents of the University of California, priority 2019, published 2022):
No constants are given. Whether binding was seen depends on the method and setting. Some results given as binding are weak or reduced against the parent protein; the word gives no strength.

Assays:
[1] = molecular target: abscisic acid receptor pyrabactin resistance 1 like protein PYL3 (Arabidopsis thaliana) (UniProt Q9SSM7); test: static light scattering, average molar mass against ABA concentration
[2] = molecular target: abscisic acid receptor pyrabactin resistance 1 like protein PYL3 (Arabidopsis thaliana) (UniProt Q9SSM7); test: static light scattering, 1.9 µM protein, increasing ABA
[3] = molecular target: abscisic acid receptor pyrabactin resistance 1 like protein PYL3 (Arabidopsis thaliana) (UniProt Q9SSM7); test: comparison with unconjugated PYL3

Measured: binding

B1: abscisic acid receptor pyrabactin resistance 1 like protein PYL3 (receptor)
chain: MNLAPIHDPSSSSTTTTSSSTPYGLTKDEFSTLDSIIRTHHTFPRSPNTCTSLIAHRVDAPAHAIWRFVRDFANPNKYKHFIKSCTIRVNGNGIKEIKVGTIREVSVVSGLPASTSVEILEVLDEEKRILSFRVLGGEHRLNNYRSVTSVNEFVVLEKDKKKRVYSVVLESYIVDIPQGNTEEDTRMFVDTVVKSNLQNLAVISTASPT
binds: all assays above
